PubChem BioAssay AID1259254, NCATS – 2017
Here is one part, drawn at random, of about 59,000 reagents tested. About 1,550 of all reagents (2.6%) were called active. 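G2 share is only a proxy for re-replication; each gene was hit by three separate siRNAs, and active genes were retested.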 A number with no mark means an inactive call. Reagents against one gene are numbered here. Not all columns of the deposit are shown. Not given: the amount of reagent.

- Test: 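Gene knock-downs that lead to re-replication, shown by excess G2 DNA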 (primary screen)
- Cells: human HCT116 colorectal cancer cells
- Reagents: single siRNA against human genes
- Timing: 3 days
- Measurement: 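Nuclei stained with Hoechst and imaged; cell-cycle phase assigned by DNA content; G2 share scaled per plate, non-targeting siRNA 0%, GMNN siRNA 100%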
- Direction: G2 robust z-score and G2 cells, % of GMNN control: higher = more G2 cells, more excess DNA replication
- Hit rule: 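An siRNA counts as active if its G2 robust z-score lies at least 5 MADs above the screen median; here such calls match roughly 38% of GMNN control or more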

gene	siRNA no.	G2 robust z-score	G2 cells, % of GMNN control
RECQL4	1	0.14	3.95
RECQL4	2	0.117	3.79
RECQL4	3	0.0486	3.31
ARMC2	1	-0.356	0.459
ARMC2	2	-0.866	-3.12
ARMC2	3	0.338	5.35
KIRREL1	1	1.16	11.1
KIRREL1	2	-0.709	-2.02
KIRREL1	3	0.708	7.95
PYROXD1	1	-0.433	-0.0777
PYROXD1	2	-0.434	-0.0856
PYROXD1	3	1.31	12.2
SEC24B	1	0.336	5.33
SEC24B	2	-0.4	0.153
SEC24B	3	0.414	5.88
RFX7	1	0.2	4.37
RFX7	2	1.15	11
RFX7	3	-0.547	-0.881

The list goes on; the last 3 above are carried over.
gene	siRNA no.	G2 robust z-score	G2 cells, % of GMNN control
RFX7	1	0.2	4.37
RFX7	2	1.15	11
RFX7	3	-0.547	-0.881
KCNJ5-AS1	1	0.692	7.84
KCNJ5-AS1	2	-0.0595	2.55
KCNJ5-AS1	3	-0.434	-0.0829
MRTFB	1	-0.62	-1.4
MRTFB	2	0.176	4.2
MRTFB	3	2.7	22
TNFSF12	1	-1.32	-6.34
TNFSF12	2	-0.121	2.11
TNFSF12	3	2.42	20
APOL3	1	-0.0947	2.3
APOL3	2	0.488	6.4
APOL3	3	-0.946	-3.69
